Here are results for 1 molecule from paper PMC6996347.

For this test, the target named is translation recovery factor Trf from Sulfolobus solfataricus (S. solfataricus) (UniProt Q97VU8). The test is described as follows: SEC; analytical gel filtration; 50 mM BisTris pH 6.5, 150 mM NaCl; protein concentration 50 μM; marker proteins PhS11 (14.74 kDa), PhFap7 (20.18 kDa), PhFap7/PhS11 complex (34.92 kDa); both purified.

These are yes or no findings as the source states them, for the method shown.

B1: translation recovery factor Trf from Sulfolobus solfataricus (protein, UniProt Q97VU8 1-124)
chain: MREEEIRELYFKYFDENKLPFIQCNKCGHKFYYPRVLCPKCGSSDIEVRFSKGLGKIFAMTKVYRKDGSYVIYGIVELEEGFRMYSNIIEESQADINRKVEVIFKEINGKKYPLFKTVTHLHNF
Consider B1, for which the binding entry is reported as “no binding (tested: 50 μM)”.
